Data source: PubChem BioAssay AID504793 (Drosophila RNAi Screening Center, 2011)

Assay: 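Genes required for cells to halt at G2/M after double-strand DNA breaks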 (primary screen)
Cells: Drosophila S2R+ cells
Reagent: long dsRNA against Drosophila genes, about 0.25 µg dsRNA per well
Time to read-out: 4 days of dsRNA, then 4 hours of drug before read-out
Challenge: doxorubicin 0.5 µM for 4 hours to cause double-strand breaks, in cells also given a low, harmless dose of dsRNA against nbs to sensitise the assay
Measured: 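Mitotic index as the number of phospho-histone H3-positive cells in each well following doxorubicin, given as raw counts without normalisation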
Reading the numbers: mitotic cells: higher = more cells in mitosis, weaker G2 arrest
Hit rule: 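Genes are called active only when high mitotic counts were reproduced with independent dsRNAs and mitosis was checked for delay without damage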
Meaning of the calls: active = confirmed in follow-up tests; inactive = not confirmed
The screen tested about 23,000 reagents; shown is an unselected part of those that have a named target and a result. Of all reagents, 62 (0.27%) were called active. 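Calls come from follow-up tests whose scores are not deposited, so confirmed genes may have low counts here; counts are not normalised per plate.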 Raw values are not corrected between plates. Unmarked entries are inactive. Reagents against one gene are numbered here. A plus sign joins genes that one reagent is predicted to hit.

With knock-down of Ehbp1 #1, the record shows mitotic cells, replicate 1 = 5.
Knock-down of Ehbp1 #2 resulted in: mitotic cells, replicate 1 = 12.
PGRP-SD gave mitotic cells, replicate 1 = 2.
For Spt #1, the values are mitotic cells, replicate 1 = 2.
For Spt #2 the deposit lists mitotic cells, replicate 1 = 10.
Against Polr3D #1, the entry reads mitotic cells, replicate 1 = 4.
Against Polr3D #2, the entry reads mitotic cells, replicate 1 = 10.
Against CG8677 + CG31626, the entry reads mitotic cells, replicate 1 = 11.
For PCB, the entry reads mitotic cells, replicate 1 = 2.
For mRpS25, the entry reads mitotic cells, replicate 1 = 12.
Against CG43707 #1, the entry reads mitotic cells, replicate 1 = 3.
Silencing of CG43707 #2 came out at: mitotic cells, replicate 1 = 6.
Against CG43707 #3, the entry reads mitotic cells, replicate 1 = 11.
Silencing of CG6421 #1 gave: mitotic cells, replicate 1 = 3.
Knock-down of CG6421 #2 came out at: mitotic cells, replicate 1 = 6.

Records above whose gene name begins with E or e (2):
Ehbp1 #1 | mitotic cells, replicate 1 = 5
Ehbp1 #2 | mitotic cells, replicate 1 = 12
